Primary screen of a compound library

Values are the deposited “Percent Effect”, in %.
How 0% and 100% were set is not recorded. Most values in the screen are low, and negative values occur.
This is an unselected part of the compounds tested.
Two or more numbers in one place are separate tests of the same structure; such repeats can differ widely.

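Viability assay of Plasmodium falciparum sporozoites; the read-out is not stated. The concentration is filed as 10 mM, unlikely as a test dose, so the dose is not known. The record gives no direction; compounds that gave an IC50 in retests scored well above the rest, so higher reads as lower viability. Strong results were mostly tested again. Size under these conditions: about 34,000 compounds, about 280 of them at 50% or above in at least one test.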

{"compound": "[H][C@@]12CCN(Cc3cc(C)on3)C[C@]1(C(=O)N1CCOCC1)CCO2", "effect": -5.893}
{"compound": "O=C(O)C(F)(F)F.O=C(O)C(F)(F)F.[H][C@@]12COC[C@]1([H])[C@H](OCc1ccccn1)CN2Cc1nccs1", "effect": 9.481}
{"compound": "Cc1cc(CN2CCN(CCOc3cccc(C#N)c3)CC2)no1", "effect": 3.667}
{"compound": "COc1ccccc1C(NC(=O)C1CCC1)c1noc(C)n1", "stereo": "stereo not shown", "effect": -3.893}
{"compound": "CCC(c1nc(C(C)C)nn1-c1ccccn1)n1cccn1", "stereo": "stereo not shown", "effect": "35.38 & 35.17 & 30.46"}
{"compound": "N#Cc1ccc(CN(CC(N)=O)C2CCCC2)c(Br)c1", "effect": -12.57}
{"compound": "CCc1ncnc2c1CCN(C(=O)c1ccncc1F)CC2.O=C(O)C(F)(F)F", "effect": -2.525}
{"compound": "CC(C)NC(=O)CC1COC2(CCN(Cc3cccnc3)CC2)C1.O=C(O)C(F)(F)F.O=C(O)C(F)(F)F", "stereo": "stereo not shown", "effect": -5.054}
{"compound": "CCOc1ccnc(N2CCN(C(=O)c3ccc(OC)cc3)CC2)n1", "effect": -6.912}
{"compound": "O=C(O)C(F)(F)F.[H][C@@]12CCCO[C@]1([H])[C@@H](Oc1cccnc1)CN2C(=O)CC1CCCC1", "effect": -11.91}
{"compound": "Cc1nnc2n1CCN(Cc1nc3ccccc3o1)C2", "effect": -7.777}
{"compound": "[H][C@@]12C[C@@H](OCc3ccccc3)C[C@]1([H])CN(Cc1cccnc1)C2", "effect": 6.398}
{"compound": "Cc1cnccc1-c1cnn(CCNC(=O)c2ccccn2)c1C1CC1.Cl", "effect": 12.05}
{"compound": "COc1ccc(C(=O)Nc2ccccc2C(C)C)c(OC)n1", "effect": 4.719}
{"compound": "CC(C)c1noc(C(C)N2CCN(c3ccc(C#N)cn3)CC2)n1", "stereo": "stereo not shown", "effect": -1.164}
{"compound": "CCOC(=O)C(C)Nc1ccc(CCN2CCOCC2)cc1", "stereo": "stereo not shown", "effect": -2.328}
{"compound": "CCc1nc(C2CCCN2Cc2nc(Cc3ccccc3)no2)no1", "stereo": "stereo not shown", "effect": -2.899}
{"compound": "CS(=O)(=O)c1ccc(NC(=O)CSc2ccc3c(c2)CCC3)cc1", "effect": 7.574}
{"compound": "CCCc1nnsc1C(=O)N1CCCC1(C)C(=O)N1CCOCC1", "stereo": "stereo not shown", "effect": -3.81}
{"compound": "Cc1cc(C(=O)N2C[C@@H](C(=O)O)[C@H](c3ccccc3C)C2)c(C)o1", "effect": "8.98 & -1.845 & 9.01"}
{"compound": "O=C(c1cccnc1-n1cncn1)N1CCc2ccccc2C1", "effect": -20.35}
{"compound": "CC(C)c1nn(C)c(Cl)c1CNC1CCOc2ccccc21.Cl", "stereo": "stereo not shown", "effect": -8.939}
{"compound": "Cc1cnn(C2CCCN(C(=O)Cc3cn4ccsc4n3)C2)c1", "stereo": "stereo not shown", "effect": 3.093}
{"compound": "COCCN1CC(C(=O)NCc2ccnc(-n3cccn3)c2)CC1=O", "stereo": "stereo not shown", "effect": -6.119}
{"compound": "Cl.O[C@@H]1CN(Cc2ccc(F)cc2)CC[C@H]1NCc1ccccn1", "effect": 3.357}
{"compound": "CNc1cncc(C2CCCN2Cc2c[nH]cn2)n1", "stereo": "stereo not shown", "effect": 2.591}
{"compound": "CNC(=O)C1Cn2ccnc2C2(CCN(CCF)CC2)O1", "stereo": "stereo not shown", "effect": -60.67}
{"compound": "CCc1nc(C)c(C(=O)NCCNC(=O)Cc2cccc(F)c2)s1", "effect": 7.971}
{"compound": "CC(NC(=O)NCC(C)(C)O)c1ccc(-c2cncnc2)cc1", "stereo": "stereo not shown", "effect": 1.647}
{"compound": "CN(Cc1ccco1)C(=O)CN1CCOC(Cn2cccn2)C1", "stereo": "stereo not shown", "effect": 0.7427}

Once more, the final 2:

* CC(NC(=O)NCC(C)(C)O)c1ccc(-c2cncnc2)cc1 (stereo not shown) : 1.647%
* CN(Cc1ccco1)C(=O)CN1CCOC(Cn2cccn2)C1 (stereo not shown) : 0.7427%

Measurements from “University of Dundee, Small-Polar-MMV Screening Library” (2021), ChEMBL document CHEMBL3988442.